doi:10.1101/2021.10.14.464355
Results are given in words; binding and its absence hold for the method and conditions named. In cells and extracts the contact can be indirect. Some binding calls cover weakened binding; strength is not graded here. One block for each substance: values may come before it.

Protein sequences, listed by entry. Tags and fused reporters are not part of them. Lines headed by an entry give the natural chain unless they say otherwise; changes in a name come on top. Chains listed by the source or under a name are the forms on record and can include a tag or linker.
UniProt P40337: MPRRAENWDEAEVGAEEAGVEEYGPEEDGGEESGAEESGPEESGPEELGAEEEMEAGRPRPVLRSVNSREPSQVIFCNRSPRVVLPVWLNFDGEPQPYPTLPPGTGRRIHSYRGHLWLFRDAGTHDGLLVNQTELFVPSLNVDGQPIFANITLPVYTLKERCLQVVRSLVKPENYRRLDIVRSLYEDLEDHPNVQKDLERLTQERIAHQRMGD
UniProt Q9NQB0: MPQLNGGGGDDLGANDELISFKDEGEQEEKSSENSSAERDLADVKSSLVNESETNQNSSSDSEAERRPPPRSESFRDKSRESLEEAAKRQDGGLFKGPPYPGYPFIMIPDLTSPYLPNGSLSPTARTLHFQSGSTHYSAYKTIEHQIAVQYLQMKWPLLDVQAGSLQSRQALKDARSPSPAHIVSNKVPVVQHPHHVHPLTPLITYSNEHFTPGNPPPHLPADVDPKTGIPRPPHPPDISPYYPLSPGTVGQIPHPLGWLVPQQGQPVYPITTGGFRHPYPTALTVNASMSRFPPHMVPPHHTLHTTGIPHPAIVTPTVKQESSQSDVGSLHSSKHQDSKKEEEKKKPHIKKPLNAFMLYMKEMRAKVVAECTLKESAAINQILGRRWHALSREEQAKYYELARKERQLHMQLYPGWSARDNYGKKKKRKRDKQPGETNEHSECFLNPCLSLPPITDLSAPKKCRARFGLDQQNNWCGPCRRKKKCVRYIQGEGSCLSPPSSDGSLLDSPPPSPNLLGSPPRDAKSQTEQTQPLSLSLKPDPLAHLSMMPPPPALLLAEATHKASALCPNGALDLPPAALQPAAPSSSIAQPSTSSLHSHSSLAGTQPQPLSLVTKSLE
endogenous TCF7L2 (human (endogenous in HEK293T)) (Q9NQB0-7, form named): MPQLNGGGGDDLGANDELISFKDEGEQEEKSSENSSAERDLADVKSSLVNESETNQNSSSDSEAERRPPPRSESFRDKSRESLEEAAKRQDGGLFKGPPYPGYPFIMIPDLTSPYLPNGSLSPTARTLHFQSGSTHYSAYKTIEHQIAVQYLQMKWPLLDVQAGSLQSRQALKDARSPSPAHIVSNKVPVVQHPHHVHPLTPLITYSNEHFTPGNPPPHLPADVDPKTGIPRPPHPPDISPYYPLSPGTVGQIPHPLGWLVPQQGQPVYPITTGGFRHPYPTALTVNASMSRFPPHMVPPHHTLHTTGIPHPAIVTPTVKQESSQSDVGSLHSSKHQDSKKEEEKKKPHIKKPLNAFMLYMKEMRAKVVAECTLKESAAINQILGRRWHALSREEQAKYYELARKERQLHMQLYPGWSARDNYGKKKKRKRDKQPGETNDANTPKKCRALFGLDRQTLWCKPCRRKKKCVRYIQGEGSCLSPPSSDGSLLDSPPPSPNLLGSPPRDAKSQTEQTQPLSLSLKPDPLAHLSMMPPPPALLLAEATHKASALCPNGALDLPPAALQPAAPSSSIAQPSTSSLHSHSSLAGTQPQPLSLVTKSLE
UniProt P55036: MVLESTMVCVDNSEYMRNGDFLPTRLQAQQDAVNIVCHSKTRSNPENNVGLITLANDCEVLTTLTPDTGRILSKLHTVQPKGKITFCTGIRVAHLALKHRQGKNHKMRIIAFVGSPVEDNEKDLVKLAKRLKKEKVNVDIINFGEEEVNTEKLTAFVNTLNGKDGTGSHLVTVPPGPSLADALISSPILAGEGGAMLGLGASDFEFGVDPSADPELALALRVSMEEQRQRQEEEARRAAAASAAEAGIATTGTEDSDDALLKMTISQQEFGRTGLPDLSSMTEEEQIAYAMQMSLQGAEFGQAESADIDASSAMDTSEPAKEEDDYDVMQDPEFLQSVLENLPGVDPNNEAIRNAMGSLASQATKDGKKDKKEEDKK

How the values were obtained:
[1] = biological target: Flag-pVHL (pCS2-Flag-pVHL) (human) (UniProt P40337); assay: co-IP
[2] = biological target: GST-pVHL (glutathione-S-transferase-pVHL, pGEX-2T-pVHL) (human) (UniProt P40337); assay: pull-down
[3] = biological target: endogenous TCF7L2 (human (endogenous in HEK293T)) (UniProt Q9NQB0); assay: co-IP
[4] = biological target: TCF7L2 wild type (construct of the domain mapping) (UniProt Q9NQB0); assay: co-IP

binding [1]: binds
Substance: endogenous 19S regulatory subunit RPN10 (from UniProt P55036 1-377)

binding [2]: binds
Substance: endogenous TCF7L2 (from UniProt Q9NQB0-7 1-602)

binding [3]: binds
Substance: endogenous pVHL (von Hippel-Lindau protein) (from UniProt P40337 1-213)

binding [4]: binds
Substance: pVHL (in the co-IP that maps the TCF7L2 domains) (from UniProt P40337 1-213)
